## Assay results

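293T-iDUX4 cells carrying a ZSCAN4-driven Gaussia luciferase and a tet-on Italica luciferase control; the gap between the two luminescence signals is read after 24 h.
The test concentration is not given here.
Percent difference between the Gaussia and Italica channels; more negative values mean more selective suppression of the DUX4 reporter, and higher values mean less activity.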

Values are in %.
The controls that fix the scale are not given here.
Common to all entries: measured here: selective DUX4 reporter inhibition.
This is a side read-out of the assay, for part of the compounds, not drawn at random.

{"smiles": "COc1cccc(NC(=O)Nc2ccc3c(c2)C(=O)N(C)C[C@@H](OC)[C@@H](C)CN(C)[C@H](C)CO3)c1", "Gaussia minus Italica difference (%)": "-4.239"}
{"smiles": "CN(C)C(=O)c1ccc(-c2ccc(C3[C@@H]4CN(Cc5ccccc5Cl)C[C@H]3N4)cc2)cc1", "stereo": "some centres unmarked", "Gaussia minus Italica difference (%)": "-7.784"}
{"smiles": "O=C(Nc1cccc(F)c1)N1CCCCN2[C@H](CO)[C@@H](c3ccc(C#CC4CC4)cc3)[C@@H]2C1", "Gaussia minus Italica difference (%)": "-23.65"}
{"smiles": "COc1ccc2c3c(n(C)c2c1)[C@@H](CO)N(C(=O)c1ccc(F)cc1)CC31CCN(C(=O)Nc2ccc(F)cc2)CC1", "Gaussia minus Italica difference (%)": "10.12"}
{"smiles": "N#C[C@@H]1[C@H](c2ccccc2-c2ccc(F)cc2)[C@H](CO)N1C(=O)Cc1ccccc1", "Gaussia minus Italica difference (%)": "-12.23"}
{"smiles": "O=C1CN(S(=O)(=O)c2ccccc2)C[C@@H]2[C@@H](c3ccc(C#CCc4ccccc4)cc3)[C@@H](CO)N12", "Gaussia minus Italica difference (%)": "-0.7124"}
{"smiles": "CN1c2ccc(C#Cc3cccnc3)cc2[C@@H]2[C@@H](CCN2S(=O)(=O)c2ccccc2)[C@H]1CO", "Gaussia minus Italica difference (%)": "-6.945"}
{"smiles": "COc1cccc(S(=O)(=O)Nc2ccc3c(c2)C(=O)N(C)C[C@H](OC)[C@H](C)CN(Cc2ccccc2F)[C@@H](C)CO3)c1", "Gaussia minus Italica difference (%)": "-5.288"}
{"smiles": "CN1c2ccc(-c3ccc(C#N)cc3)cc2[C@@H]2[C@@H](CCN2C(=O)NC2CCCCC2)[C@@H]1CO", "Gaussia minus Italica difference (%)": "10.8"}
{"smiles": "COc1ccc2c3c([nH]c2c1)[C@H](CO)N(C(=O)CN(C)C)CC31CCN(Cc2ccccc2Cl)CC1", "Gaussia minus Italica difference (%)": "17.13"}
{"smiles": "CCCNC(=O)N1C[C@@H]2N[C@H](C1)C2c1ccc(-c2ccccc2C)cc1", "stereo": "some centres unmarked", "Gaussia minus Italica difference (%)": "-7.818"}
{"smiles": "O=C(C[C@@H]1CC[C@@H]2[C@H](COC[C@@H](O)CN2Cc2ccc(Oc3ccccc3)cc2)O1)Nc1nccs1", "Gaussia minus Italica difference (%)": "-3.673"}
{"smiles": "C/C=C/c1ccccc1[C@@H]1[C@@H](CO)N(S(=O)(=O)c2cccc(F)c2)[C@H]1C#N", "Gaussia minus Italica difference (%)": "-3.68"}
{"smiles": "O=C(c1cccc(F)c1)N1CCCCN2[C@@H](CO)[C@H](c3ccc(-c4ccccc4)cc3)[C@@H]2C1", "Gaussia minus Italica difference (%)": "-17.36"}
{"smiles": "COc1ccc2c3c([nH]c2c1)[C@H](CO)N(Cc1ccccc1)CC31CN(C)C1", "Gaussia minus Italica difference (%)": "-23.74"}
{"smiles": "O=C(CCN1CCCCC1)N[C@H]1CC[C@@H](CC(=O)N2CCC(Cc3ccccc3)CC2)O[C@@H]1CO", "Gaussia minus Italica difference (%)": "-9.48"}
{"smiles": "Cc1cccc(-c2ccc([C@H]3[C@@H](CO)N4CCCCN(S(=O)(=O)c5cccs5)C[C@H]34)cc2)c1", "Gaussia minus Italica difference (%)": "-10.95"}
{"smiles": "CN1c2ccc(-c3cccc(F)c3)cc2[C@@H]2[C@@H](CCN2C(=O)c2ccc3c(c2)OCO3)[C@@H]1CO", "Gaussia minus Italica difference (%)": "13.1"}
{"smiles": "CCc1cnc(N2[C@H](C#N)[C@@H](c3ccccc3C3=CCCCC3)[C@@H]2CO)s1", "Gaussia minus Italica difference (%)": "-5.097"}
{"smiles": "COc1ccc2c3c([nH]c2c1)[C@H](CO)N(C)CC31CN(S(=O)(=O)c2ccc(C)cc2)C1", "Gaussia minus Italica difference (%)": "-8.439"}
{"smiles": "COc1ccc2c3c(n(C)c2c1)[C@@H](CO)N(C(=O)c1cccc(F)c1)CC31CCN(C(=O)c2cccc(F)c2)CC1", "Gaussia minus Italica difference (%)": "-6.448"}
{"smiles": "O=C(N[C@H]1CC[C@H](CCn2cc(-c3ccccc3)nn2)O[C@H]1CO)c1ccccc1F", "Gaussia minus Italica difference (%)": "-6.942"}
{"smiles": "COc1cccc(-c2ccc([C@@H]3[C@@H](CO)N4CCCCN(S(=O)(=O)c5cccs5)C[C@H]34)cc2)c1", "Gaussia minus Italica difference (%)": "-22.6"}
{"smiles": "Cc1ccc(S(=O)(=O)N2CC[C@@H]3[C@H](CO)Nc4ccc(-c5cccc(C(=O)N(C)C)c5)cc4[C@@H]32)cc1", "Gaussia minus Italica difference (%)": "13.76"}
{"smiles": "C[C@H](O)C#Cc1ccc([C@H]2[C@@H](CO)N3CCCCN(S(=O)(=O)c4ccccc4)C[C@@H]23)cc1", "Gaussia minus Italica difference (%)": "0.5234"}
{"smiles": "COc1ccc(CN2C[C@H](C)[C@H](OC)CN(C)C(=O)c3cc(NC(=O)c4nc5ccccc5s4)ccc3OC[C@@H]2C)cc1", "Gaussia minus Italica difference (%)": "-10.68"}
{"smiles": "COc1ccc2c3c(n(C)c2c1)[C@@H](CO)NCC31CCN(S(=O)(=O)c2cccc(C)c2)CC1", "Gaussia minus Italica difference (%)": "-0.394"}
{"smiles": "COc1cccc(S(=O)(=O)N2CCCCN3[C@H](CO)[C@H](c4ccc(C5=CCCCC5)cc4)[C@@H]3C2)c1", "Gaussia minus Italica difference (%)": "-5.501"}
{"smiles": "CN1c2ccc(C3=CCCCC3)cc2[C@@H]2[C@@H](CCN2C(=O)C2CCCCC2)[C@H]1CO", "Gaussia minus Italica difference (%)": "-4.852"}
{"smiles": "C[C@H]1CN([C@@H](C)CO)C(=O)c2c(c3ccccc3n2C)-c2ccccc2CO[C@H]1CN(C)C(=O)Nc1cccc(C(F)(F)F)c1", "Gaussia minus Italica difference (%)": "1.84"}

Once more, the final 3:

{"smiles": "COc1cccc(S(=O)(=O)N2CCCCN3[C@H](CO)[C@H](c4ccc(C5=CCCCC5)cc4)[C@@H]3C2)c1", "Gaussia minus Italica difference (%)": "-5.501"}
{"smiles": "CN1c2ccc(C3=CCCCC3)cc2[C@@H]2[C@@H](CCN2C(=O)C2CCCCC2)[C@H]1CO", "Gaussia minus Italica difference (%)": "-4.852"}
{"smiles": "C[C@H]1CN([C@@H](C)CO)C(=O)c2c(c3ccccc3n2C)-c2ccccc2CO[C@H]1CN(C)C(=O)Nc1cccc(C(F)(F)F)c1", "Gaussia minus Italica difference (%)": "1.84"}

From PubChem BioAssay record AID1224904 (Broad Institute, 2016).